According to patent US20250099033A1, “HIGH THROUGHPUT SCREENING METHOD FOR THE IDENTIFICATION OF PS[…]” (FRIEDRICH MIESCHER INSTITUTE FOR BIOMEDICAL RESEARCH, priority 2022, published 2025):
“Also recorded” adds a separate entry of the source. At least one structure is not confirmed: it was looked up by name or label, or the drawing left a doubt.

Tests used:
Format in all cases: in vivo
[1] = tested on: Tlx3 positive layer 5 IT neurons; experiment: Widefield calcium imaging of dorsal cortex in Tlx3-Cre x Ai148 mice (GCaMP6 in layer 5 IT neurons), before and after drug injection
Excerpt: All animal procedures were approved by and carried out in accordance with guidelines of the Veterinary Department of the Canton Basel-Stadt, Switzerland. The mice used in this study were kept on a C57BL/6 background and were of the following genotype: 6 C57/Bl6 (Charles River Laboratories), 4 Emx1-Cre mice (Gorski et al., 2002), 4 Cux2-CreERT2 (Franco et al., 2012), 7 Scnn1a-Cre (Madisen et al., 2010), 15 Tlx3-Cre(PL56) (Gerfen et al., 2013), 3 Ntsr1-Cre (Gong et al., 2007), 2 PV-Cre (Hippenmeyer et al., 2005), 6 VIP-Cre (Taniguchi et al., 2011), 5 Sst-Cre (Taniguchi et al., 2011) were used for widefield calcium imaging. Ai148 ((Daigle et al., 2018), Jackson Laboratories, stock #030328) mice were used as breeders to drive GCaMP6f in Cre positive neurons. 7 C57BL/6 were used for experiments controlling for hemodynamic responses. To induce expression of Cre in the Cux2-CreERT2 line, mice were kept for at least 1 week on Tamoxifen containing food (Envigo, 400 mg Tamoxifen per kg of food) as their only food source. Mice were group housed in a vivarium (light/dark cycle: 12/12 hours). Experimental mice used were of both sexes.
For all surgical procedures, mice were anesthetized using a mixture of Fentanyl (0.05 mg/kg; Actavis), Midazolam (5.0 mg/kg; Dormicum, Roche) and Medetomidine (0.5 mg/kg; Domitor, Orion). In a subset of mice (6 C57/Bl6, 4 Emx1-Cre, 4 Sst-Cre mice) we injected an AAV coated with the PHP.eb capsid (Chan et al., 2017) retroorbitally ([…] each eye of at least 10^13 GC/ml) to drive expression pan-neuronally or cell type specificly of GCaMP6 under either the Ef1α or hSyn promoter. For hemodynamic response control experiments, the inventors used an AAV PHP.eb Ef1α-GFP to pan-neuronally transfect GFP. To improve optical access to the cortex, they implanted crystal skull cranial windows (Kim et al., 2016). Prior to removing the skull plate overlying dorsal cortex, they zeroed bregma with a digital readout attached to the stereotax for later use as a landmark. Superglue (Pattex) was used to close the craniotomy. […] A custom-machined titanium head bar was attached to the skull using dental cement (Paladur, Heraeus). An epifluorescence overview image was taken to mark reference points on the dorsal cortical surface. Anesthesia was antagonized by an intraperitoneal injection of a mixture of Flumazenil (0.5 mg/kg; Anexate, Roche) and Atipamezole (2.5 mg/kg; Antisedan, Orion Pharma), analgesia was achieved by injecting Buprenorphine (0.1 mg/kg; Reckitt Benckiser Healthcare (UK) Ltd.) and Metacam (5 mg/kg; Boehringer Ingelheim), and mice were subsequently returned to their home cage. Imaging commenced not before 1 week after headbar implantation and not before at least 3 weeks had passed in the cases in which AAVs had been used to transfect neurons. Clozapine (Sigma), Aripiprazole (Otsuka Pharmaceutical), Haloperidol (Janssen) and Amphetamine (Hänseler) were intraperitoneally injected at […] body weight, respectively.
For all experiments we used a virtual reality setup as previously described (Leinweber et al., 2014). Mice were head-fixed and free to run on a spherical, air supported Styrofoam ball. Rotation of the ball was coupled to movement in a virtual reality environment. A virtual corridor was projected (Samsung SP-F10M) onto a toroidal screen positioned in front of the mice covering approximately 240 degrees horizontally and 100 degrees vertically of the field of view. […]

[2] = tested on: dorsal cortex (GCaMP6 brain wide); experiment: Widefield calcium imaging of dorsal cortex in C57/Bl6 mice that expressed GCaMP6 brain wide, before and after drug injection
[3] = tested on: layer 2/3 and layer 4 excitatory neurons; experiment: Widefield calcium imaging of dorsal cortex in Cux2-CreERT2 x Ai148 mice, before and after drug injection; settings: after vs before Clozapine, compared with Tlx3-Cre x Ai148

Q: How did the “long-range activity correlations (drug induced difference, normalized to naïve)” value ([1]; Tlx3-Cre x Ai148 mice, region pairs above 0.9 of the bregma-lambda distance) turn out when `CN1CCN(C2=Nc3cc(Cl)ccc3Nc3ccccc32)CC1` [Clozapine] was run?
A: significantly reduced; also recorded: reduction in both short- and long-range correlations

Q: And the “short-range activity correlations (drug induced difference, normalized to naïve)” value ([1]; Tlx3-Cre x Ai148 mice, region pairs below 0.9 of the bregma-lambda distance)?
A: significantly reduced; also recorded: reduction in both short- and long-range correlations

Q: And the “Pearson's correlation of activity between cortical regions (all region pairs)” value ([1]; Tlx3-Cre x Ai148 mice, single injection, after vs naïve)?
A: strongly reduced correlations of cortical activity; also recorded: larger decrease in correlations

Q: And the “mean (average) activity over all recording sessions” value ([1]; Tlx3-Cre x Ai148 mice, single intraperitoneal injection, after injection vs naïve)?
A: increased mean activity

Q: And the “average correlation of activity with locomotion” value ([1]; Tlx3 positive layer 5 IT neurons, after vs before injection)?
A: decreased

Q: What about the “open loop visual flow onset responses” value ([1]; Tlx3 positive layer 5 neurons, single intraperitoneal injection) of the same compound?
A: remained largely unchanged

Q: And the “closed loop and open loop locomotion onset responses” value ([1]; Tlx3 positive layer 5 neurons, virtual reality, single intraperitoneal injection)?
A: massive increase in activity

Q: And the “average correlation of activity with locomotion” value ([2]; after vs before injection)?
A: increased

Q: And the “long-range activity correlations (drug induced difference, normalized to naïve)” value ([2]; region pairs above 0.9 of the bregma-lambda distance)?
A: not significant for either of them

Q: And the “short-range activity correlations (drug induced difference, normalized to naïve)” value ([2]; region pairs below 0.9 of the bregma-lambda distance)?
A: not significant for either of them

Q: What about the “Pearson's correlation of activity between cortical regions (all region pairs)” value ([2]; single injection, after vs naïve) of the same compound?
A: only a minor effect on correlations of cortical activity; also recorded: did not significantly affect activity correlations; also recorded: relatively modest decrease in correlations

Q: And the “open loop visual flow onset responses” value ([2]; single intraperitoneal injection)?
A: small increase

Q: And the “mean (average) activity over all recording sessions” value ([2]; single intraperitoneal injection, after injection vs naïve)?
A: no evidence of a change in mean activity

Q: What about the “closed loop and open loop locomotion onset responses” value ([2]; virtual reality, single intraperitoneal injection) of the same compound?
A: almost unaffected

Q: And the “correlations of cortical activity in superficial excitatory neurons” value [3]?
A: decreased correlations of cortical activity also in superficial excitatory neurons, but this reduction was significantly weaker
